Hit rate of the full screen: of about 360,000 compounds, about 7,500 (2.1%) were called active. The inconclusive results got no clear call from the source; some entries with a clear call stand among them for comparison. Calls follow the shape of the dose curve; as a rule, active = well fitted inhibition curve with a large enough effect; inconclusive = small, poorly fitted or top-dose-only effect, or effect the other way; inactive = flat fitted curve, though single readings scatter. Potencies beside an inconclusive call are fits to weak or partial responses and may not hold up. Square brackets hold non-standard residues; d marks the D form. Peptide text beside a SMILES is read from it. * marks the point of attachment. Hyp = O=C(O)[CH]1C[CH](O)CN1; Cbz = O=C(OCc1ccccc1)*; OBn = c1ccc(CO*)cc1
Test: Nrf2 qHTS screen for inhibitors; also: nearly all actives have a fitted effect of over 60% in size
Conditions: A549 ARE-Fluc reporter, luciferase luminescence, 18-24 h; activity change, negative = inhibition: at 46 µM (top of the series)
Outline: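 Nrf2 activity is the BugLite luminescence, read 15 min after reagent at room temperature, following CellTiter-Fluor cytotoxicity readout (30 min, 37C). Compound titrations were applied for 18-24 h to 5000 A549 ARE_Fluc cells/well in 5% FBS OPTI-MEM.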
In the case of CCOC(=O)C1CCN(Cc2cccc(OCc3ccccc3)c2)CC1, the Potency was inconclusive: 0.164 µM [falling, full curve, poor fit].
In the case of O=C(COc1ccc2ccccc2c1)NCCc1ccc2c(c1)OCCO2, the Potency was inconclusive: 14.6 µM [falling, single point].
With Cc1ccc(NC(=O)c2ccc(OCc3c(C)noc3C)cc2)c(C)c1 the Potency was active: 23.1 µM.
With COc1cccc(CN(C)C(=O)c2cc(-c3cccs3)nc3ccccc23)c1 the Potency was inconclusive: 18.4 µM [falling, partial curve, poor fit].
With O=S(=O)(c1ccc(F)cc1)N(CC(O)Cn1c2ccccc2c2ccccc21)c1ccccc1 (centres undefined) the Potency was inconclusive: 29.1 µM [falling, single point].
With COc1ccc(Nc2ncc(F)c(N3CCOCC3)n2)cc1 the Potency was inconclusive: 6.51 µM [activator, single point].
For Cc1ccc(C(=O)/C=C/Nc2cccc([N+](=O)[O-])c2)o1, the Potency was inconclusive: 13 µM [activator, partial curve, poor fit].
For O=[N+]([O-])c1cc(S(=O)(=O)N2CCOCC2)ccc1NS(=O)(=O)c1ccccc1, the Potency was inconclusive: 11.6 µM [falling, partial curve, poor fit].
For C=CCNC(=O)c1ccc(-c2nc3ccccc3nc2-c2ccccc2)cc1, the “activity change, negative = inhibition” value was inactive: -4.17%.
For Cc1ccc(-n2nc3c(n2)/C(=N/O)CC/C3=N\O)cc1, the Potency was inconclusive: 2.31 µM [activator, full curve].
With CC(C)(C)c1cc(NC(=O)c2cccs2)no1 the Potency was inconclusive: 0.461 µM [activator, full curve].
For COc1cc(OC)c(N(C)C(=O)c2c(C)oc3ncnc(N4CCCCC4)c23)cc1Cl, the Potency was inconclusive: 2.59 µM [falling, partial curve, poor fit].
With COc1ccc2[nH]cc(CCNS(=O)(=O)Cc3ccccc3)c2c1 the Potency was inconclusive: 29.1 µM [falling, partial curve, poor fit].
In the case of Cc1oc(-c2ccccc2F)nc1CS(=O)CC(=O)NC(C)C (centres undefined), the “activity change, negative = inhibition” value was inactive: -7.64%.
For Cc1cc(/C=C2/NC(=O)NC2=O)c(C)n1-c1cccnc1, the Potency was inconclusive: 14.6 µM [activator, partial curve, poor fit].
With NNC(=O)C1=NOC2COC3(CCN(c4ncccn4)CC3)OCC12 (centres undefined) the Potency was inconclusive: 5.8 µM [activator, full curve, poor fit].
For O=C(Nc1ccc2c(c1)OCCO2)c1ccccc1F, the Potency was inconclusive: 0.82 µM [activator, partial curve, poor fit].
With COc1ccc(NC(=O)CSc2nnc3c4c(nc(-c5ccccc5)n23)CC(C)(C)OC4)cc1 the Potency was inconclusive: 2.31 µM [falling, partial curve, poor fit].
In the case of O=C(NCC(=O)N1CC(O)CC1C(=O)N1CC(O)CC1C(=O)OCc1ccccc1)OCc1ccccc1 (stereo not drawn) (Cbz-Gly-[Hyp]-[Hyp]-OBn; configuration not given here), the Potency was inconclusive: 29.1 µM [falling, single point].
For CC(=O)c1c(C)[nH]c(C(=O)CSc2ccc(F)cc2)c1C, the Potency was inconclusive: 29.1 µM [falling, single point].
With CCc1ccc(-n2nc(CO)c(C(=O)NCCc3ccccc3)n2)cc1 the “activity change, negative = inhibition” value was inactive: 24.4%.
For COc1ccc(CNC(=O)C2COc3ccccc3O2)cc1 (centres undefined), the Potency was inconclusive: 23.1 µM [activator, partial curve].
For COc1cccc(C(=O)N2CCCCC2CCN2CCCCC2)c1 (centres undefined), the “activity change, negative = inhibition” value was inactive: 24%.
For Cc1cc(=O)oc2cc(OCCc3ccccc3)ccc12, the Potency was inconclusive: 11.6 µM [activator, partial curve].
With CCCCOc1ccc(C(=O)NN2C(=O)NC3(CCCCC3)C2=O)cc1OC the “activity change, negative = inhibition” value was inactive: 14.9%.
In the case of Cc1ccc(C(C)C)c(Oc2nnnn2-c2ccccc2)c1, the Potency was inconclusive: 29.1 µM [falling, single point].
For COc1ccc(NS(=O)(=O)c2ccc(NC(=O)c3ccc(N(C)S(C)(=O)=O)cc3)cc2)cc1, the Potency was active: 16.4 µM.
For COc1ccc(CN(C(=O)c2ccc3c(c2)OCCO3)C(C(=O)NC2CCCCC2)c2ccc3ncccc3c2)cc1 (centres undefined), the Potency was inconclusive: 18.4 µM [falling, single point].
In the case of NC(=O)C1CCCN(C(=O)c2ccc(Cl)c(S(=O)(=O)N3CCc4ccccc43)c2)C1 (centres undefined), the Potency was inconclusive: 11.6 µM [falling, partial curve].
For Nc1c(C(=O)c2ccc(Cl)cc2)oc2ccccc12, the “activity change, negative = inhibition” value was inactive: -4.57%.
In the case of O=C(NCC(=O)N1CCOCC1)c1ccc(Cl)c(Cl)c1, the Potency was inconclusive: 16.4 µM [activator, partial curve].
For Cc1c(C(=O)NCc2cccc(Br)c2)oc2ccc3c(c12)C(=O)CC(C)(C)O3, the Potency was inconclusive: 9.2 µM [falling, partial curve].
For COC(=O)c1cc2c(n1S(=O)(=O)c1ccc(C)cc1)C(=O)C(=O)c1[nH]cc(C(=O)OCc3ccccc3)c1-2, the Potency was active: 4.11 µM.
For Nc1ccc2nc(-c3ccccc3)sc2c1, the Potency was inconclusive: 0.82 µM [activator, partial curve].
For CCN(CC)CCCNC(=O)c1ccc(Cn2c(SCc3ccccc3)nc3cccnc32)cc1, the Potency was inconclusive: 18.4 µM [activator, single point].
With O=C(COC(=O)c1cc(=O)[nH]c2ccccc12)Nc1ccccc1F the Potency was inconclusive: 18.4 µM [activator, single point].
In the case of Cn1c(=O)n(Cc2c(F)cccc2Cl)c(=O)c2c1nc1n2CCN1c1ccc(F)cc1, the Potency was inconclusive: 23.1 µM [falling, single point].
In the case of Cc1csc2nc(=O)c3ccccc3n12, the “activity change, negative = inhibition” value was inactive: -5.73%.
For CCOC(=O)c1c(-c2ccc(Cl)cc2)csc1NC(=O)CNCc1ccco1, the Potency was inconclusive: 1.46 µM [falling, partial curve, poor fit].
With C=CCn1c2ccccc2c(=O)c2cc(C#CC[C@@H](C)O)ccc21 the Potency was inconclusive: 3.66 µM [activator, partial curve].
With COc1ccc(C)cc1NC(=O)CN1CCCC1c1ccc2c(c1)OCCCO2 (centres undefined) the Potency was inconclusive: 23.1 µM [falling, single point].
In the case of CCOc1ccc(CCNC(=O)Cn2ncn3nc(-c4ccc(OC)cc4)cc3c2=O)cc1, the Potency was inconclusive: 25.9 µM [activator, single point].
In the case of Nc1nn(-c2ccccc2)nc1C(=O)OCc1ccc(Cl)cc1, the “activity change, negative = inhibition” value was inactive: 0.879%.
For CSc1cccc(NS(=O)(=O)c2ccc3c(c2)CCN3C(C)=O)c1, the Potency was inconclusive: 13 µM [falling, partial curve, poor fit].
In the case of CNC(=O)N1c2ccccc2C=Cc2ccccc21, the “activity change, negative = inhibition” value was inactive: 2.79%.
In the case of COc1c(C)cccc1C(=O)Nc1ccc(-c2nc3ccccc3s2)c(Cl)c1, the Potency was active: 25.9 µM.
In the case of Cc1ccc(N(C)S(=O)(=O)c2cccc(C(=O)NCCCN3CCCC3=O)c2)cc1, the Potency was inconclusive: 0.461 µM [falling, full curve, poor fit].
In the case of Cc1ccc2c(c1)c(C)c(C)n2CC(O)Cn1nc(C)c(Br)c1C (centres undefined), the “activity change, negative = inhibition” value was inactive: 6.74%.
For O=C(c1ccccc1)c1ccc(OCCO)cc1, the Potency was inconclusive: 16.4 µM [activator, partial curve, poor fit].
With Cc1c(C(=O)NCc2ccccn2)oc2ccccc12 the Potency was inconclusive: 9.2 µM [activator, partial curve].
With Cc1cccc(NC(=O)Cn2c(O)c(N=NC(=O)c3ccccc3O)c3ccccc32)c1 the Potency was inconclusive: 29.1 µM [falling, single point].
For Cc1c(C(=O)NCc2cccc(Cl)c2)sc2nc3n(c(=O)c12)CCCC3, the Potency was inconclusive: 29.1 µM [falling, single point].
With COc1ccc([N+](=O)[O-])cc1NC(=O)CSCc1cc(C)cc(C)c1 the Potency was inconclusive: 20.6 µM [falling, partial curve].
For COc1cccc(C2c3c(ncn(-c4cccc(OC)c4)c3=N)Oc3ccc4ccccc4c32)c1 (centres undefined), the “activity change, negative = inhibition” value was inactive: -1.76%.
In the case of COc1ccc(C(=O)NCC(=O)OCC(=O)c2ccc3ccccc3c2)cc1, the Potency was inconclusive: 4.11 µM [falling, full curve, poor fit].
With CCN(c1ccccc1)c1nc(C#N)nc(N(CC)c2ccccc2)n1 the Potency was inconclusive: 29.1 µM [falling, single point].
In the case of COc1ccc(N2CCN(Cc3nc(Cc4cccc(F)c4)no3)C(C)C2)cc1 (centres undefined), the Potency was inconclusive: 20.6 µM [falling, partial curve, poor fit].
In the case of COCCNC(=O)c1cccc(OC2CCN(Cc3ccc(C(C)C)cc3)CC2)c1, the Potency was inconclusive: 18.4 µM [falling, single point].
For CC1=C(c2ccc(F)cc2)S(=O)(=O)N=C1N1CCC(C(=O)NCCc2cccc(C)c2)CC1, the “activity change, negative = inhibition” value was inactive: 13.3%.
In the case of CCN1CCN(Cc2ccc(NC(=O)Nc3cccs3)cc2)CC1, the Potency was inconclusive: 1.84 µM [activator, full curve].
In the case of Oc1ccc(Cl)cc1-c1cc(-c2ccco2)[nH]n1, the “activity change, negative = inhibition” value was inactive: 10.9%.
In the case of CCc1ccc(/C=N/n2c(C)cc(C)c(C#N)c2=O)cc1, the “activity change, negative = inhibition” value was inactive: 8.72%.
With CC1=C(C(=O)NCc2ccccc2F)C2(CCCCC2)OC1=O the Potency was inconclusive: 18.4 µM [activator, single point].
With Cc1cc(C)c2ccc(NN)nc2c1O the “activity change, negative = inhibition” value was inactive: 0.171%.
For COc1ccc(NC(=O)C23CCC(C)(C(=O)O2)C3(C)C)cc1 (centres undefined), the “activity change, negative = inhibition” value was inactive: -0.323%.
With Oc1ccc(/C=N/Nc2ccnc3cc(Cl)ccc23)c(O)c1O the “activity change, negative = inhibition” value was inactive: -4.97%.
With Cc1occc1C(=O)NNC(=O)CN1C(=O)NC(C)(c2ccccc2)C1=O (centres undefined) the “activity change, negative = inhibition” value was inactive: -2.87%.
In the case of O=[N+]([O-])c1ccccc1NC1CCN(Cc2ccccc2)CC1, the “activity change, negative = inhibition” value was inactive: 1.28%.
In the case of CC(=O)N1CCOc2ccc(S(=O)(=O)N3CCC(C(=O)Nc4cc(C)cc(C)c4)CC3)cc21, the Potency was inconclusive: 14.6 µM [falling, partial curve, poor fit].
% is scaled to controls: 0 for no effect and ±100 for the full control effect; potency is read from the fitted curve at half-maximal effect.
